Source: patent publication US12439951B2, “Aerosolizable material with cannabinoid and carrier constituent” (Nicoventures Trading Limited, priority 2019, dated 2025)

Experiment: Solubility of cannabidiol in glycerol/propylene glycol/water solutions
Format: physicochemical
Details: Isolate 10 mg/mL, Glycerol 36 w/w
Description: Thus, by controlling the amount of water present in the system, there was no need for the inclusion of a surface active constituent in order to ensure stability of the aerosolizable material.

## C=C(C)[C@@H]1CCC(C)=C[C@H]1c1c(O)cc(CCCCC)cc1O [Isolate, cannabidiol]
PG 52.09 w/w, Water 11 w/w
  Soluble: YES
PG 53.09 w/w, Water 10 w/w
  Soluble: YES
